# Results as given in US11261435B2, “Chemical-inducible genome engineering technology” (AGENCY FOR SCIENCE, TECHNOLOGY AND RESEARCH, priority 2015, dated 2022).
# Some entries share one result that the patent states for a list of compounds.
# Tested on: EMX1 locus
# Assay: Surveyor cleavage assay at the EMX1 locus in HEK293 cells
# Format: cell-based, human
# Protocol: FIG. 29|Effect of enzyme dosage on the level of background activity, shown as gel images. Different amounts of an iCas-bearing plasmid were transfected together with an EMX1-targeting sgRNA into HEK293 cells. These cells were harvested 96 hours after transfection for the Surveyor cleavage assay. DNA modification was clearly observed when 1 μg of plasmid was utilised, even in the absence of the inducer. […] The switching ratio was improved from 2.83 to 4.16 and 7.96 respectively. […] Arrows indicate the height of the expected cleavage bands.
row,Substance,duration of 4-hydroxytamoxifen treatment until cleavage activity was detected [h]
1,variant 27: NLS-TGGGS-ERT2-PRGGS-ERT2-TPESGA-Cas9-NLS-ERT2-PAG-ERT2 (SEQ ID NO. 246),≤ 4
2,variant 29: NLS-TG-ERT2-GGSPRGGS-ERT2-TPESGA-Cas9-NLS-ERT2-PAG-ERT2 (SEQ ID NO. 248),≤ 4
3,variant 30: NL-TGGGS-ERT2-PRGGS-ERT2-TPESGA-Cas9-NLS-ERT2-PAGGGS-ERT2 (SEQ ID NO. 249); hereafter referred to as iCas,≤ 4
